In publication PMC5838801:
No constants are given. Whether binding was seen depends on the method and setting.

The chains behind the UniProt entries cited, without tags or fusion partners. Residues count along the entry.
UniProt P04004, residues 20-478: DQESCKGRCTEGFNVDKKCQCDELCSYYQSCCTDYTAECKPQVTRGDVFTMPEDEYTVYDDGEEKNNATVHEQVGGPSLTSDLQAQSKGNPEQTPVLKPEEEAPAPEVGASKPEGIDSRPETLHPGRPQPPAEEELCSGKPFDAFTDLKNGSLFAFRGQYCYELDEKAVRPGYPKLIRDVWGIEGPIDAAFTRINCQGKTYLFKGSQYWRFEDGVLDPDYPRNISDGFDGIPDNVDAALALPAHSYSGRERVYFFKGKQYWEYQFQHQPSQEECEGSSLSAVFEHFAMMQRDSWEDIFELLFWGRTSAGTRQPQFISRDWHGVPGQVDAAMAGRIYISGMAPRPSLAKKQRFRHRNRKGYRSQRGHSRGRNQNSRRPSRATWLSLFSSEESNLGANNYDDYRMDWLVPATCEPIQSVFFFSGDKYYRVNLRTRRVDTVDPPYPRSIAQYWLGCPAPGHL
UniProt Q9HCN6, residues 21-267: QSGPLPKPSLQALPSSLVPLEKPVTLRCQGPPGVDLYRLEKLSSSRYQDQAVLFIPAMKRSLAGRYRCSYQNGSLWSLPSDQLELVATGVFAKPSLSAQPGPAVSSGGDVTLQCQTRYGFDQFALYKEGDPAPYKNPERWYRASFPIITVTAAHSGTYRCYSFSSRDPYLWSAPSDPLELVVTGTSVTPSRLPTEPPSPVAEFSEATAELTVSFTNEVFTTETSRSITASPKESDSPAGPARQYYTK

Target: vitronectin (UniProt P04004)
Assay: ELISA; fibrinogen derivatives, collagen III, fibronectin or vitronectin immobilised on 96‐well plates in PBS overnight at 4 °C (10–200 μg mL^−1), blocked with 1% BSA/PBS; GPVI‐Fc2, GPVIex or control proteins in solution; bound GPVI detected with 1G5 and IRDye 800CW anti‐mouse IgG or with Alexa‐fluor 647 anti‐human Fc; binding to BSA subtracted; both purified

- binding: no binding (tested: 50 μg mL^−1)
Substance: GPVI‐Fc2 (dimeric Fc‐fusion protein of the GPVI extracellular domain) (from UniProt Q9HCN6 21-267) (Fc fusion)
